Laboratory results taken from paper doi:10.1101/2023.08.13.552748.
No constants are given. Whether binding was seen depends on the method and setting. Some entries that bind do so weakly or less than the wild type.

Tests used:
Experiment in all cases: cryo-EM structure
Settings in all cases: remark: other sources report otherwise
[1] = target: T1, full length rat mGluR3 (metabotropic glutamate receptor 3) (rat), P31422
[2] = target: T1, full length rat mGluR3 (metabotropic …); remark: listed apart in the source
[3] = target: T1, full length rat mGluR3 (metabotropic …); remark: listed apart in the source
[4] = target: T1, full length rat mGluR3 (metabotropic …); remark: listed apart in the source

Measured: binding

B1: full length rat mGluR3 (metabotropic glutamate receptor 3), P31422 23-879 (receptor)
chain: LGDHNFMRREIKIEGDLVLGGLFPINEKGTGTEECGRINEDRGIQRLEAMLFAIDEINKDNYLLPGVKLGVHILDTCSRDTYALEQSLEFVRASLTKVDEAEYMCPDGSYAIQENIPLLIAGVIGGSYSSVSIQVANLLRLFQIPQISYASTSAKLSDKSRYDYFARTVPPDFYQAKAMAEILRFFNWTYVSTVASEGDYGETGIEAFEQEARLRNICIATAEKVGRSNIRKSYDSVIRELLQKPNARVVVLFMRSDDSRELIAAANRVNASFTWVASDGWGAQESIVKGSEHVAYGAITLELASHPVRQFDRYFQSLNPYNNHRNPWFRDFWEQKFQCSLQNKRNHRQVCDKHLAIDSSNYEQESKIMFVVNAVYAMAHALHKMQRTLCPNTTKLCDAMKILDGKKLYKEYLLKINFTAPFNPNKGADSIVKFDTFGDGMGRYNVFNLQQTGGKYSYLKVGHWAETLSLDVDSIHWSRNSVPTSQCSDPCAPNEMKNMQPGDVCCWICIPCEPYEYLVDEFTCMDCGPGQWPTADLSGCYNLPEDYIKWEDAWAIGPVTIACLGFLCTCIVITVFIKHNNTPLVKASGRELCYILLFGVSLSYCMTFFFIAKPSPVICALRRLGLGTSFAICYSALLTKTNCIARIFDGVKNGAQRPKFISPSSQVFICLGLILVQIVMVSVWLILETPGTRRYTLPEKRETVILKCNVKDSSMLISLTYDVVLVILCTVYAFKTRKCPENFNEAKFIGFTMYTTCIIWLAFLPIFYVTSSDYRVQTTTMCISVSLSGFVVLGCLFAPKVHIVLFQPQKNVVTHRLHLNRFSVSGTATTYSQSSASTYVPTVCNGREVLDSTTSSL
binds: [1] | [2] | [3] | [4]
